Laboratory results: PubChem BioAssay AID1224828 (NIAID, 2016)
Here is one part, drawn at random, of about 17,000 reagents tested. 762 of all reagents (4.5%) were called active. 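Active calls include both raised and lowered p65 entry, mostly lowered; wells with fewer than 50 cells lack a z-score.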 The raw values are shown without normalisation. A number with no mark means an inactive call. A reagent listed more than once was tested more than once; the source does not tell the runs apart.

Aim: 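Knock-downs that increase or decrease LPS-induced p65 nuclear translocation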 (primary screen)
Cell system: mouse RAW264.7 G9 macrophage reporter cells (GFP-p65, Tnf promoter-mCherry)
Knock-down reagent: siRNA pool against mouse genes, 100 nM
Time to read-out: 2 days siRNA transfection, then 40 min LPS before fixation
Treatment: LPS (Salmonella minnesota R595) at 10 ng/ml
Measured: 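Microscopy ratio of nuclear to perinuclear-ring GFP-p65 signal, scaled to the plate median; gene score is the average of two replicate robust z-scores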
Reading the numbers: p65 translocation robust z-score: higher = more nuclear NF-kappaB p65 after LPS than the plate median; nuclear/cytoplasmic p65 ratio: higher = more nuclear NF-kappaB p65
Call rule: 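Called active when z exceeds 3.3 or falls under -1.56 (median of Tlr4 controls), giving activity score of at least 50; no calls for control wells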
Meaning of the calls: active = hit (p65 shift raised or lowered); inactive = no clear change

Depletion of Vmn1r23 (GeneID 171197) [SID315477286] resulted in: p65 translocation robust z-score 0.09; nuclear/cytoplasmic p65 ratio, rep 1 = 1.4; nuclear/cytoplasmic p65 ratio, rep 2 = 1.24; low cell count flag enough cells to score.
Against Zcchc12 (GeneID 72693) [SID315474607], the entry reads p65 translocation robust z-score 0.3; nuclear/cytoplasmic p65 ratio, rep 1 = 1.54; nuclear/cytoplasmic p65 ratio, rep 2 = 1.4; low cell count flag enough cells to score.
Against Ifna13 (GeneID 230396) [SID315478779], the entry reads nuclear/cytoplasmic p65 ratio, rep 1 = 1.41; nuclear/cytoplasmic p65 ratio, rep 2 = 1.43; low cell count flag fewer than 50 cells per well; well left out of scoring.
After knock-down of Bacc1 (GeneID 104457) [SID315476446], the screen gave p65 translocation robust z-score 1.26; nuclear/cytoplasmic p65 ratio, rep 1 = 1.64; nuclear/cytoplasmic p65 ratio, rep 2 = 1.7; low cell count flag enough cells to score.
With knock-down of Edf1 (GeneID 59022) [SID315471957] the results were p65 translocation robust z-score -2.2 (active); nuclear/cytoplasmic p65 ratio, rep 1 = 0.992; nuclear/cytoplasmic p65 ratio, rep 2 = 1.24; low cell count flag enough cells to score.
Zfp12 (GeneID 231866) [SID315478939] scored p65 translocation robust z-score -0.24; nuclear/cytoplasmic p65 ratio, rep 1 = 1.36; nuclear/cytoplasmic p65 ratio, rep 2 = 1.53; low cell count flag enough cells to score.
Against Lat2 (GeneID 56743) [SID315471666], the values are p65 translocation robust z-score -0.44; nuclear/cytoplasmic p65 ratio, rep 1 = 1.35; nuclear/cytoplasmic p65 ratio, rep 2 = 1.21; low cell count flag enough cells to score.
Against Decr1 (GeneID 67460) [SID315473042], the values are p65 translocation robust z-score 0.03; nuclear/cytoplasmic p65 ratio, rep 1 = 1.48; nuclear/cytoplasmic p65 ratio, rep 2 = 1.38; low cell count flag enough cells to score.

A stretch of the results above:
Zcchc12 (GeneID 72693) [SID315474607]: p65 translocation robust z-score = 0.3; nuclear/cytoplasmic p65 ratio, rep 1 = 1.54; nuclear/cytoplasmic p65 ratio, rep 2 = 1.4; low cell count flag = enough cells to score
Ifna13 (GeneID 230396) [SID315478779]: nuclear/cytoplasmic p65 ratio, rep 1 = 1.41; nuclear/cytoplasmic p65 ratio, rep 2 = 1.43; low cell count flag = fewer than 50 cells per well; well left out of scoring
Bacc1 (GeneID 104457) [SID315476446]: p65 translocation robust z-score = 1.26; nuclear/cytoplasmic p65 ratio, rep 1 = 1.64; nuclear/cytoplasmic p65 ratio, rep 2 = 1.7; low cell count flag = enough cells to score

Next entries follow.
Against Acad11 (GeneID 102632) [SID315476342], the values are p65 translocation robust z-score 1.27; nuclear/cytoplasmic p65 ratio, rep 1 = 1.53; nuclear/cytoplasmic p65 ratio, rep 2 = 1.63; low cell count flag enough cells to score.
Depletion of Mrps22 (GeneID 64655) [SID315472112] resulted in: p65 translocation robust z-score -0.82; nuclear/cytoplasmic p65 ratio, rep 1 = 1.66; nuclear/cytoplasmic p65 ratio, rep 2 = 1.49; low cell count flag enough cells to score.
Against Ubn1 (GeneID 170644) [SID315477182], the values are p65 translocation robust z-score -0.34; nuclear/cytoplasmic p65 ratio, rep 1 = 1.4; nuclear/cytoplasmic p65 ratio, rep 2 = 1.52; low cell count flag enough cells to score.
With knock-down of Pura (GeneID 19290) [SID315468829], the record shows p65 translocation robust z-score -0.61; nuclear/cytoplasmic p65 ratio, rep 1 = 1.54; nuclear/cytoplasmic p65 ratio, rep 2 = 1.33; low cell count flag enough cells to score.
Against Map4k5 (GeneID 399510) [SID315481878], the entry reads nuclear/cytoplasmic p65 ratio, rep 1 = 1.47; nuclear/cytoplasmic p65 ratio, rep 2 = 1.32; low cell count flag fewer than 50 cells per well; well left out of scoring.
Map4k5 (GeneID 399510) [SID315481878] scored p65 translocation robust z-score -0.38; nuclear/cytoplasmic p65 ratio, rep 1 = 2.11; nuclear/cytoplasmic p65 ratio, rep 2 = 1.33; low cell count flag enough cells to score.
Against Ufl1 (GeneID 67490) [SID315473063], the values are nuclear/cytoplasmic p65 ratio, rep 1 = 1.31; nuclear/cytoplasmic p65 ratio, rep 2 = 1.26; low cell count flag fewer than 50 cells per well; well left out of scoring.
Klra9 (GeneID 16640) [SID315467669] scored p65 translocation robust z-score 0.47; nuclear/cytoplasmic p65 ratio, rep 1 = 1.49; nuclear/cytoplasmic p65 ratio, rep 2 = 1.44; low cell count flag enough cells to score.
Depletion of Gpd1l (GeneID 333433) [SID315481657] resulted in: p65 translocation robust z-score -2.63 (active); nuclear/cytoplasmic p65 ratio, rep 1 = 1.13; nuclear/cytoplasmic p65 ratio, rep 2 = 1.23; low cell count flag enough cells to score.
Silencing of Vps4b (GeneID 20479) [SID315469263] resulted in: p65 translocation robust z-score -0.56; nuclear/cytoplasmic p65 ratio, rep 1 = 1.34; nuclear/cytoplasmic p65 ratio, rep 2 = 1.15; low cell count flag enough cells to score.
Silencing of Ear3 (GeneID 53876) [SID315471119] resulted in: nuclear/cytoplasmic p65 ratio, rep 1 = 1.46; nuclear/cytoplasmic p65 ratio, rep 2 = 1.33; low cell count flag fewer than 50 cells per well; well left out of scoring.
Tmub1 (GeneID 64295) [SID315472085] gave nuclear/cytoplasmic p65 ratio, rep 1 = 1.88; nuclear/cytoplasmic p65 ratio, rep 2 = 0.975; low cell count flag fewer than 50 cells per well; well left out of scoring.
4833439L19Rik (GeneID 97820) [SID315476108] scored nuclear/cytoplasmic p65 ratio, rep 1 = 1.42; nuclear/cytoplasmic p65 ratio, rep 2 = 1.4; low cell count flag fewer than 50 cells per well; well left out of scoring.
